Measurements: PMC10409745

Protein sequences, listed by entry. Tags and fused reporters are not part of them.
UniProt A0A3Q7ELQ2: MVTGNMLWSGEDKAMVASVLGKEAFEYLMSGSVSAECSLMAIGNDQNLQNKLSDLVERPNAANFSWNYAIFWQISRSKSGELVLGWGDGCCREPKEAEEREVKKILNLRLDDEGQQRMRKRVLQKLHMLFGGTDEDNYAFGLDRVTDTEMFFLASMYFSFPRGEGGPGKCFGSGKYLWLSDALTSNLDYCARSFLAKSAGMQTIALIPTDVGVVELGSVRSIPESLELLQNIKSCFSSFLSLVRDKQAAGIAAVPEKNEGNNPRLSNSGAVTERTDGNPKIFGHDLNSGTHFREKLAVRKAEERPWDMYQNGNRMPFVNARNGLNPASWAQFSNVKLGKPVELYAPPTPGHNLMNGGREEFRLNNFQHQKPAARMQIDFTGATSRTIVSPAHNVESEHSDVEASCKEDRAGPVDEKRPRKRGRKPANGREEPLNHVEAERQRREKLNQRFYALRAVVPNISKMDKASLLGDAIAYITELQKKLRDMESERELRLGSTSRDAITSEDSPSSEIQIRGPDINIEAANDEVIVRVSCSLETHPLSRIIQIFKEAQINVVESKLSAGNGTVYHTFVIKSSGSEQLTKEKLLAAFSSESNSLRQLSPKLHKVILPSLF
UniProt A0A3Q7HES4: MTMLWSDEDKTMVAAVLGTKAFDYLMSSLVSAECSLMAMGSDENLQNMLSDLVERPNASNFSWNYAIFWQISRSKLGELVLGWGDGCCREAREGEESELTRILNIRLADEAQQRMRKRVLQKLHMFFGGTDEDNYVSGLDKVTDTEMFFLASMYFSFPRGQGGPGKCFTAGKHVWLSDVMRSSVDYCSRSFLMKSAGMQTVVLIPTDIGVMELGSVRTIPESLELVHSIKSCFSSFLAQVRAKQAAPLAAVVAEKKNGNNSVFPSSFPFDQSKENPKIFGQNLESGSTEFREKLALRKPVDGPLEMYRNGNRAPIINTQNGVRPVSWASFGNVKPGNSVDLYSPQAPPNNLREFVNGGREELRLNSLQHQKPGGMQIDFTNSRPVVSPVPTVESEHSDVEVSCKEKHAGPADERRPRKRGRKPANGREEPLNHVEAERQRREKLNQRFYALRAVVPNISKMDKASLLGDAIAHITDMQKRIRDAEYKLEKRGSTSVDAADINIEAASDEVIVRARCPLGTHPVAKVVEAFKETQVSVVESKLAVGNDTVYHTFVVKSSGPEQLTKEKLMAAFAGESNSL
UniProt A0A3Q7H216: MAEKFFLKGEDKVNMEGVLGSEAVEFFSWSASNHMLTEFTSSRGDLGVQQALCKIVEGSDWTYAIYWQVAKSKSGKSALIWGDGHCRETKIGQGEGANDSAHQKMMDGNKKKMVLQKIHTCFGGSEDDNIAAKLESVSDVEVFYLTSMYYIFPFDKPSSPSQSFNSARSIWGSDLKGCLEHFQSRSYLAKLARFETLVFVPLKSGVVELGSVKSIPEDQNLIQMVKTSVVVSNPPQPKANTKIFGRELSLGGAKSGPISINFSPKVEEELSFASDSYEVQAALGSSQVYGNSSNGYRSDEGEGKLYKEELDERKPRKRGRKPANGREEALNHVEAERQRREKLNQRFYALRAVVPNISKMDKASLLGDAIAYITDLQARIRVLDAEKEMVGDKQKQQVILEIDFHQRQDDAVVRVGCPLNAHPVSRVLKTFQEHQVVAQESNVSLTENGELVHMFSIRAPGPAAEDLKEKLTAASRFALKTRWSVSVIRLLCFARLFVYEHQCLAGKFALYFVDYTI
UniProt A0A3Q7JC00: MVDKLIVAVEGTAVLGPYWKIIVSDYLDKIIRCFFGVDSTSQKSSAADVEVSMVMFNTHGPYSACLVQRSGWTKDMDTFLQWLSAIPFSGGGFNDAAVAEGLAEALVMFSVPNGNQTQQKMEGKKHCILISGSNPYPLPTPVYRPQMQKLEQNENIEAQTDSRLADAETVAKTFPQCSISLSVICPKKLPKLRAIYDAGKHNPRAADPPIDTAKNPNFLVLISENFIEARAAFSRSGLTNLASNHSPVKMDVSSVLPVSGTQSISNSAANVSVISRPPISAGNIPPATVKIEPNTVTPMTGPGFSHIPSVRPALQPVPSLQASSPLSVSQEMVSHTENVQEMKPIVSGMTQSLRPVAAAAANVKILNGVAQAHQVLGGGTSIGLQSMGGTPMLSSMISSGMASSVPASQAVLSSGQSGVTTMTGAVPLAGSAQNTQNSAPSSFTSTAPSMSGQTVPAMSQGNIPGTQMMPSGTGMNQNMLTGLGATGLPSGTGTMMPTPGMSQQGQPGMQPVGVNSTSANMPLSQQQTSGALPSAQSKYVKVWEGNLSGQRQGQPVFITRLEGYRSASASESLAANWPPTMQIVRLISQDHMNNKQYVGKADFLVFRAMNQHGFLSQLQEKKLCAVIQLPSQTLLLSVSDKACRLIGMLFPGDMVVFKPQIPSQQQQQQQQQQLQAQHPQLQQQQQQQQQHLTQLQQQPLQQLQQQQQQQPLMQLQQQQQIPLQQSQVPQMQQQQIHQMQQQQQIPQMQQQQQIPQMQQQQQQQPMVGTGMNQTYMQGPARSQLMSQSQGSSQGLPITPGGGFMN

Experiments:
[1] = target: ATG8a in pGBKT7 (yeast two-hybrid bait) (tomato (Solanum lycopersicum)) (UniProt F1JYZ5); test: two-hybrid; library screen: ATG8a in pGBKT7 as bait in yeast AH109, tomato cDNA library, colonies cultured on SD-Leu/Trp/Ade/His after mating
[2] = target: ATG8f in pGBKT7 (yeast two-hybrid) (tomato (Solanum lycopersicum)) (UniProt F1JYZ6); test: two-hybrid; mated colonies carrying pGBKT7-ATG8s and pGADT7-JAMs (or AIM mutants), transferred from SD-L/T to SD-L/T/A/H plates at different dilutions
[3] = target: ATG8d in pGBKT7 (yeast two-hybrid) (tomato (Solanum lycopersicum)); test: as above
[4] = target: ATG8a in pGBKT7 (yeast two-hybrid bait) (tomato (Solanum lycopersicum)) (UniProt F1JYZ5); test: as above
[5] = target: GST-ERF1 (tomato (Solanum lycopersicum)); test: pull-down; 1 ug purified GST-ERF1 and MBP-MED25 with increasing amounts of His-JAM1 or His protein; 25 mM Tris-HCl pH 7.5, 100 mM NaCl, 1 mM DTT, 4 C, 2 h; capture by GST, immunoblot with anti-MBP; both purified

| Substance | binding [1] | binding [2] | binding [3] | binding [4] | binding [5] |
| --- | --- | --- | --- | --- | --- |
| JASMONATE-ASSOCIATED MYC2-LIKE 1 (JAM1) in pGADT7 (yeast two-hybrid) (from UniProt A0A3Q7ELQ2 1-613) | binds | binds | binds | binds |  |
| JASMONATE-ASSOCIATED MYC2-LIKE 2 (JAM2) in pGADT7 (yeast two-hybrid) (from UniProt A0A3Q7HES4 1-579) |  | binds | binds | binds |  |
| JASMONATE-ASSOCIATED MYC2-LIKE 3 (JAM3) in pGADT7 (yeast two-hybrid) (from UniProt A0A3Q7H216 1-517) |  | binds | binds | binds |  |
| MBP-MED25 (from UniProt A0A3Q7JC00 1-805) |  |  |  |  | binds |

These are yes or no findings as the source states them, for the method shown. Binding calls can cover weak binding; strength is not graded here.
